16 molecules from US20240400677A1 can be followed below.

The chains behind the UniProt entries cited, without tags or fusion partners. Where a name states a change or a piece, a line headed by the entry shows the natural chain unless it says otherwise. Residues count along the entry.
UniProt Q9P1W8: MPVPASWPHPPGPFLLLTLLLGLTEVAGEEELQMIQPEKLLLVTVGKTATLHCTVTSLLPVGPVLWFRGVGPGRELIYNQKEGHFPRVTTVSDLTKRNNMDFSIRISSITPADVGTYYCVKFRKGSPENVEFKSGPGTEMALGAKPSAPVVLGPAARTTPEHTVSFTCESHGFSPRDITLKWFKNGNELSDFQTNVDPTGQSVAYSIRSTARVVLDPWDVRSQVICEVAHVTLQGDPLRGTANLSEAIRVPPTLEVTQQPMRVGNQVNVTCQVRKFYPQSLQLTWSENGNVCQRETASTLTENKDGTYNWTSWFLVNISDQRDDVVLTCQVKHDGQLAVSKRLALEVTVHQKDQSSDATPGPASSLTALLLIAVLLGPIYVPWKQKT
UniProt O00241, residues 30-371: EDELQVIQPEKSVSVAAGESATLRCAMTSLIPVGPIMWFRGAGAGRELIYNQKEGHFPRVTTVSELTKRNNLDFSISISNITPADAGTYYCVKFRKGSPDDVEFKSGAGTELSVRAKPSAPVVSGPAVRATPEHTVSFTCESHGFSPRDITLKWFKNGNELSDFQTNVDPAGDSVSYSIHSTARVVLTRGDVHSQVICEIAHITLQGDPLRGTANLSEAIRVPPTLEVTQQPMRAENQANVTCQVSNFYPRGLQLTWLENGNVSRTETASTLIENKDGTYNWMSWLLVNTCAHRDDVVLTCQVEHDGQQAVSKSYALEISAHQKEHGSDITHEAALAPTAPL

Where a chain is given by its changes, count along the chain named. Results are given in words; binding and its absence hold for the method and conditions named. Some results given as binding are weak or reduced against the parent protein; the word gives no strength.

To fix the notation:
B1: Antibody 81 (antibody, V domains shown)
VH: QVQLVQSGAEVKKPGASVKVSCKASGYTFTSYDINWVRQAPGQGLEWMGWISGYNGNTNYAQKFQGRVTMTRDTSTSTVYMELSSLRSEDTAVYYCARSFDWLLLLDYWGQGTLVTVSS
VL: DIQMTQSPSSLSASVGDRVTITCRASQSISSWLAWYQQKPGKAPKLLIYDATTLESGVPSRFSGSGSGTDFTLTISSLQPEDFATYYCQQYDSYPWTFGQGTKLEIK
B2: Antibody 57 (antibody, V domains shown)
VH: QVQLVQSGAEVKKPGASVKVSCKASGYTFTSYYMHWVRQAPGQGLEWMGWINPNSGNAGFAQKFQGRVTMTRDTSTSTVYMELSSLRSEDTAVYYCARGPVYSYGPFDYWGQGTLVTVSS
VL: DIQMTQSPSSLSASVGDRVTITCRASQGISTYLAWYQQKPGKAPKLLIYAASTLQSGVPSRFSGSGSGTDFTLTISSLQPEDFATYYCQQSHSAPITFGQGTKVEIK
B3: Antibody 58 (antibody, V domains shown)
VH: QVQLVQSGAEVKKPGASVKVSCKASGYTFTAYYMHWVRQAPGQGLEWMGIINPSGGSTSYAQKFQGRVTMTRDTSTSTVYMELSSLRSEDTAVYYCARDSGWYAPGYYYGMDVWGQGTTVTVSS
VL: B2 VL with Q27E, G28S, T31H, Y32W, A50G, H92Y, S93T, A94P, I96L, Q100G
B4: Antibody 55 (antibody, V domains shown)
VH: EVQLLESGGGLVQPGGSLRLSCAASGFTFSNSDMNWVRQAPGKGLEWVSYISSSGNTIYYADSVKGRFTISRDNSKNTLYLQMNSLRAEDTAVYYCARSNWNYPLDYYYMDVWGKGTTVTVSS
VL: DIVMTQSPLSLPVTPGEPASISCRSSQSLLHSNGYNYLDWYLQKPGQSPQLLIYAASSLQSGVPDRFSGSGSGTDFTLKISRVEAEDVGVYYCMQGTHWPPTFGQGTKVEIK
B5: Antibody 74 (antibody, V domains shown)
VH: QVQLVQSGAEVKKPGASVKVSCKASGGTFSNYGFSWVRQAPGQGLEWMGWMSPSSGNTGYAQKFQGRVTMTRDTSTSTVYMELSSLRSEDTAVYYCARERSGSYFDYWGQGTLVTVSS
VL: EIVMTQSPATLSVSPGERATLSCRASQSVSSYLAWYQQKPGQAPRLLIYGTSTRATGIPARFSGSGSGTEFTLTISSLQSEDFAVYYCQQYGSLPFTFGQGTRLEIK
B6: Antibody 75 (antibody, V domains shown)
VH: QVQLVQSGAEVKKPGSSVKVSCKASGGTFSNYAISWVRQAPGQGLEWMGGIIPIFGSTASYAQKFQGRVTITADESTSTAYMELSSLRSEDTAVYYCARGVGDDTLTDWGQGTLVTVSS
VL: B4 VL with G96A, T97L, H98Q, W99T, P101L, Q105G
B7: Antibody 83 (antibody, V domains shown)
VH: QVQLVQSGAEVKKPGASVKVSCKASGYSFSDYYMHWVRQAPGQGLEWMGWMSPNSGNTGYAQKFQGRVTMTRDTSTSTVYMELSSLRSEDTAVYYCARQREEYGHYYYGMDVWGQGTMVTVSS
VL: EIVMTQSPATLSVSPGERATLSCRASQSLGSTYLAWYQQKPGQAPRLLIYGASTRATGIPARFSGSGSGTEFTLTISSLQSEDFAVYYCQQYYSSPPTFGQGTKVEIK
B8: Antibody 32 (scFv, V domains shown)
VH: QVQLVQSGAEVKKPGASVKVSCKASGYTFTSYYMYWVRQAPGQGLEWMGWINPNSGNTGYAQKFQGRVTMTRDTSTSTVYMELSSLRSEDTAVYYCAKDRRRGVGLAAAGTSAFDIWGQGTMVTVSS
VL: B2 VL with G28S, T31N, Y32W, T53S, H92Y, A94T, I96Y, V104L
B9: Antibody 33 (scFv, V domains shown)
VH: QVQLVQSGAEVKKPGASVKVSCKASGYTFTSYYMHWVRQAPGQGLEWMGWMNPNSDNTGYAQKFQGRVTMTRDTSTSTVYMELSSLRSEDTAVYYCARVGVGYGYYYYGMDVWGQGTTVTVSS
VL: B2 VL with S26G, G28S, S30G, T31D, A34N, T53S, H92Y, A94T, I96W
B10: Antibody 36 (scFv, V domains shown)
VH: QVQLVQSGAEVKKPGASVKVSCKASGYTFTDNYLHWVRQAPGQGLEWMGIIETSGGSTDYAQKFQGRVTMTRDTSTSTVYMELSSLRSEDTAVYYCARSFGGYSYDDAFDIWGQGTTVTVSS
VL: B2 VL with R24Q, T31N, A34N, T53S, H92Y, A94S, I96Y
B11: Antibody 41 (scFv, V domains shown)
VH: B6 VH
VL: B4 VL with G96A, T97L, H98Q, W99T, P101L, Q105G
B12: Antibody 35 (scFv, V domains shown)
VH: QVQLVQSGAEVKKPGASVKVSCKASGYTFTSYYIHWVRQAPGQGLEWMGTINPSGGSTSYAQKFQGRVTMTRDTSTSTVYMELSSLRSEDTAVYYCARETSRWLRDYYYGMDVWGQGTTVTVSS
VL: B4 VL with A55D, Q60E, P101L, Q105G
B13: Antibody 34 (scFv, V domains shown)
VH: QVQLVQSGAEVKKPGASVKVSCKASGYTFSNYYMHWVRQAPGQGLEWMGWMNPNSGNTGYAQKFQGRVTMTRDTSTSTVYMELSSLRSEDTAVYYCARASMYSSSGFDYWGQGTLVTVSS
VL: B4 VL with A55L, S58T, L59R, Q60A, S61P, T97S, T102S, K108R, V109L
B14: Antibody 39 (scFv, V domains shown)
VH: B5 VH
VL: B5 VL
B15: Antibody 95 (antibody, V domains shown)
VH: B13 VH with S30T, N31S, A99D, S100Q, S105Y, F107M, Y109V, L115T
VL: DIQMTQSPSSLSASVGDRVTITCRASESITNWLAWYQQKPGKAPKLLIYKASSLESGVPSRFSGSGSGTDFTLTISSLQPEDFATYYCQQSYGTPYTFGQGTKVEIK
B16: Antibody 89 (antibody, V domains shown)
VH: QVQLVQSGAEVKKPGASVKVSCKASGGTFSSYAISWVRQAPGQGLEWMGIINPSSSSTGYAQKFQGRVTMTRDTSTSTVYMELSSLRSEDTAVYYCARAGYYDSSGYYYSPYYGMDVWGQGTTVTVSS
VL: B7 VL with L29I, G30S, S31G, T32S, Y93G, S95F, P97F, Q101P, E106D

One experiment addresses cynomolgus monkey SIRPγ on CHO cells (cynomolgus monkey). Nature of the experiment: flow cytometry, CHO transfectants, anti-human IgG. A general note: A flow cytometer gives signals particle by particle.
On to B1, for which the binding result was “binds”.
As to B2, the binding entry was “binds”.
B3: the binding result is on record as “binds”.
With B4, the binding result is reported as “binds”.
B5: the binding result is reported as “binds”.

The target in a further experiment is human SIRPγ on stably transfected CHO cells (human) (UniProt Q9P1W8). Nature of the experiment: flow cytometry, CHO transfectants, anti-human IgG.
With B1, the binding result is given as “binds”.
For B2, the binding result was “binds”.
For the molecule B3, the binding entry was “binds”.
Take B4: the binding entry is “binds”.
Take B5: the binding result is given as “binds”.

The next experiment addresses Cynomolgus Monkey SIRPγ (plate-coated extracellular domain). The experiment can be described thus: ELISA, coated SIRP ECD (2 µg/mL), anti-human IgG, luminescence.
For B1, the binding result is “binds”.
As for B2, the binding result is given as “binds”.
As for B3, the binding entry was “binds”.
B6: the binding entry is recorded as “binds”.
Same read-out and setting: as for B5, the entry is “binds”.

In the next experiment the target is extracellular binding domain of human SIRPγ (plate-coated) (human) (UniProt Q9P1W8). The experiment is described as above.
In the case of B1, the binding entry is listed as “binds”.
Take B2: the binding entry is listed as “binds”.
On the same count and under the same terms, as for B3, the entry is “binds”.
On the same count and under the same terms, as for B6, the entry is “binds”; as for B4, “binds”; as for B5, “binds”.

The target of a further experiment is human SIRPγ on primary human T-cells (human) (UniProt Q9P1W8). Nature of the experiment: flow cytometry, naive and stimulated human CD3+ T cells.
As to B7, the binding entry is reported as “binds”.

For the next experiment, the target named is cynomolgus monkey SIRPα-His monomer protein (cynomolgus monkey). Nature of the experiment: BLI. In general terms: Biolayer interferometry detects binding as a change in optical thickness at a sensor tip.
For B8, the binding entry is recorded as “no binding (tested: <0.02 nm at 115 s)”.
As to B9, the binding result was “no binding (tested: <0.02 nm at 115 s)”.
As to B10, the binding entry was “no binding (tested: <0.02 nm at 115 s)”.
Same read-out and setting: for B11 the value was “no binding (tested: <0.02 nm at 115 s)”; for B12, “no binding (tested: <0.02 nm at 115 s)”; for B13, “no binding (tested: <0.02 nm at 115 s)”.
Regarding B14, the binding result is reported as “no binding (tested: <0.02 nm at 115 s)”.

Another experiment concerns the target human SIRPβ1-His monomer protein (human) (UniProt O00241). The experiment can be described thus: BLI.
Turning to B8, the binding entry is reported as “no binding (tested: <0.02 nm at 115 s; 500 nM)”.
Still for that read-out and setting: for B9 the value was “no binding (tested: <0.02 nm at 115 s; 500 nM)”; for B10, “no binding (tested: <0.02 nm at 115 s; 500 nM)”.
With B11, the binding result is reported as “no binding (tested: <0.02 nm at 115 s; 500 nM)”.
For the molecule B12, the binding result is listed as “no binding (tested: <0.02 nm at 115 s; 500 nM)”.
On the same count and under the same terms, for B13 the value was “no binding (tested: <0.02 nm at 115 s; 500 nM)”.
Still for that read-out and setting: for B14 the value was “no binding (tested: <0.02 nm at 115 s; 500 nM)”.

Another experiment addresses human SIRPα V2-His monomer protein (human) (UniProt P78324). The experiment can be described thus: BLI.
Consider B8, for which the binding result is “no binding (tested: <0.02 nm at 115 s; 500 nM)”.
In the case of B9, the binding entry is listed as “no binding (tested: <0.02 nm at 115 s; 500 nM)”.
Turning to B10, the binding result is “no binding (tested: <0.02 nm at 115 s; 500 nM)”.
As to B11, the binding entry is given as “no binding (tested: <0.02 nm at 115 s; 500 nM)”.
Regarding B12, the binding entry was “no binding (tested: <0.02 nm at 115 s; 500 nM)”.
As to B13, the binding entry was “no binding (tested: <0.02 nm at 115 s; 500 nM)”.
B14: the binding result is given as “no binding (tested: <0.02 nm at 115 s; 500 nM)”.

A further experiment addresses human SIRPγ on primary human T-cells (human) (UniProt Q9P1W8). Nature of the experiment: flow cytometry, human T-cells, 20 µg/mL.
On to B15, for which the binding entry is recorded as “binds”.
For B7, the binding result is “binds”.
As for B16, the binding entry is reported as “binds”.
